Test results: PMC10051889
Results are given in words; binding and its absence hold for the method and conditions named. For some of these results: Binding seen in cells or lysates may run through a third protein. Some binding calls cover weakened binding; strength is not graded here. For some of these results: Where a sequence is shown, tags or fusion partners need not be part of it.

Amino acid sequences for entries named in this document (tags omitted).
UniProt Q39026: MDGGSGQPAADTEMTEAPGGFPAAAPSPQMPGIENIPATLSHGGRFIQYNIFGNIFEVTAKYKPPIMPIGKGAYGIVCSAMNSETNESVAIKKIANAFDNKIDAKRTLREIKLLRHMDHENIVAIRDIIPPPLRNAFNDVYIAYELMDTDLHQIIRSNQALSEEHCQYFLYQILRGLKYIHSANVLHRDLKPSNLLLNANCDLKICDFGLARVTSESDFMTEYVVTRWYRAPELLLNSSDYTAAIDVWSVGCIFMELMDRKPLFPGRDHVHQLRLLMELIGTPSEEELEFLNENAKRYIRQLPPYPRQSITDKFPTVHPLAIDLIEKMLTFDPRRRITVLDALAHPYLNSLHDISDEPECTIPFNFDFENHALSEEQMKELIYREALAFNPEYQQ

T1: MAP kinase3 (MPK3), pGBKT7-MPK3 bait (Arabidopsis thaliana) (UniProt Q39023)
T1 sequence: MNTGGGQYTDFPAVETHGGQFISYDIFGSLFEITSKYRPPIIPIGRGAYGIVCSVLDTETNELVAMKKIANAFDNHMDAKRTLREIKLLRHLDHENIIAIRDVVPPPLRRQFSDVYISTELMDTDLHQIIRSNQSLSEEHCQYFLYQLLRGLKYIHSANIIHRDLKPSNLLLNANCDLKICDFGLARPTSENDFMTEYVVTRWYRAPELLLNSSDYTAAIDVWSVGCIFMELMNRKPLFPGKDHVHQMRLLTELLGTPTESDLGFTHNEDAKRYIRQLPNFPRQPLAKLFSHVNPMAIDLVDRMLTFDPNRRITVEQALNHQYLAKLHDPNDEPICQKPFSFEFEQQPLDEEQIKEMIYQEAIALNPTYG

T2: MPK3-nLUC (Arabidopsis thaliana) (UniProt Q39023)
T2 sequence: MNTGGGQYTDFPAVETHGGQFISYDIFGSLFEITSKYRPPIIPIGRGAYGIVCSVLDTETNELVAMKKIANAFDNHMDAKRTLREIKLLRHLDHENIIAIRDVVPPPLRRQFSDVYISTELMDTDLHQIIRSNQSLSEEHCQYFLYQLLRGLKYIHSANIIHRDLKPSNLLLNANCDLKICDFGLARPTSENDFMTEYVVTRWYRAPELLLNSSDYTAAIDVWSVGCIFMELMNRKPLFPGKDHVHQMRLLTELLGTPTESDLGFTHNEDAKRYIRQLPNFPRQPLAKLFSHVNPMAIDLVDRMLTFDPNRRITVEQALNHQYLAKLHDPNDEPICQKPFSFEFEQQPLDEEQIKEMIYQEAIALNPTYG


Assays:
[1] = molecular target: T1, MAP kinase3 (MPK3), pGBKT7-MPK3 bait (Arabidopsis thaliana); experiment: two-hybrid; MPK3 or MPK6 in pGBKT7 as bait, CRK41 in pGADT7 as prey; co-transformed into yeast AH109, grown on SD-Trp-Leu, then SD-Trp-Leu-His-Ade plates
[2] = molecular target: MPK6, pGBKT7-MPK6 bait (Arabidopsis thaliana) (UniProt Q39026); experiment: as above
[3] = molecular target: T2, MPK3-nLUC (Arabidopsis thaliana); experiment: split reporter; luciferase complementation imaging (LCI); nLUC fusions of MPK3 or MPK6 and CRK41-cLUC transiently expressed in leaves of 5-week-old N. benthamiana by Agrobacterium GV3101, leaves collected after 2-3 days
[4] = molecular target: MPK6-nLUC (Arabidopsis thaliana) (UniProt Q39026); experiment: as above

| Binder | binding [1] | binding [2] | binding [3] | binding [4] |
| --- | --- | --- | --- | --- |
| CRK41 (cysteine-rich receptor-like kinase 41), pGADT7-CRK41 prey (receptor, UniProt O23081 1-665) MTSSCSLSRPQHLFFFFFLFVPFLSLGQQISVDINSAIWEFPSNPLCLSQQSNFAKSSQFSKNLDSLVSSIPSLKSNTYNFYSLSVGSISDQERVEAIGICNRVVNRVDCLNCIAQAAVNLTTMYCPQHRGAYVRATKCMFRYSDKPIFGKLETSPVLEAPNPSNATGDRNEFIRLQSELLNRLRSMAASGGSKRKYAQGTDPGSPPYTTFFGAVQCTPDLSEKDCNDCLSYGFSNATKGRVGIRWFCPSCNFQIESDLRFFLLDSEYEPDPKPGNDKVKIIIATVCSVIGFAIIAVFLYFFMTRNRRTAKQRHEGKDLEELMIKDAQLLQLDFDTIRLATNDFSRDNQLGEGGFGAVYKGVLDYGEEIAVKRLSMKSGQGDNEFINEVSLVAKLQHRNLVRLLGFCLQGEERILIYEFFKNTSLDHYIFDSNRRMILDWETRYRIISGVARGLLYLHEDSRFKIVHRDMKASNVLLDDAMNPKIADFGMAKLFDTDQTSQTRFTSKVAGTYGYMAPEYAMSGEFSVKTDVFSFGVLVLEIIKGKKNNWSPEEDSSLFLLSYVWKSWREGEVLNIVDPSLVETIGVSDEIMKCIHIGLLCVQENAESRPTMASVVVMLNANSFTLPRPSQPAFYSGDGESLSRDKNQINHIASLNDVTITEFDAR | binds | no binding |  |  |
| CRK41-cLUC (receptor, UniProt O23081 28-665) QQISVDINSAIWEFPSNPLCLSQQSNFAKSSQFSKNLDSLVSSIPSLKSNTYNFYSLSVGSISDQERVEAIGICNRVVNRVDCLNCIAQAAVNLTTMYCPQHRGAYVRATKCMFRYSDKPIFGKLETSPVLEAPNPSNATGDRNEFIRLQSELLNRLRSMAASGGSKRKYAQGTDPGSPPYTTFFGAVQCTPDLSEKDCNDCLSYGFSNATKGRVGIRWFCPSCNFQIESDLRFFLLDSEYEPDPKPGNDKVKIIIATVCSVIGFAIIAVFLYFFMTRNRRTAKQRHEGKDLEELMIKDAQLLQLDFDTIRLATNDFSRDNQLGEGGFGAVYKGVLDYGEEIAVKRLSMKSGQGDNEFINEVSLVAKLQHRNLVRLLGFCLQGEERILIYEFFKNTSLDHYIFDSNRRMILDWETRYRIISGVARGLLYLHEDSRFKIVHRDMKASNVLLDDAMNPKIADFGMAKLFDTDQTSQTRFTSKVAGTYGYMAPEYAMSGEFSVKTDVFSFGVLVLEIIKGKKNNWSPEEDSSLFLLSYVWKSWREGEVLNIVDPSLVETIGVSDEIMKCIHIGLLCVQENAESRPTMASVVVMLNANSFTLPRPSQPAFYSGDGESLSRDKNQINHIASLNDVTITEFDAR |  |  | binds | no binding |
